{"source": "PubChem BioAssay AID743121 (NCATS, 2013)", "assay": "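Knock-downs that sensitise breast cancer cells to camptothecin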 (primary screen)", "system": "MDA-MB-231 cells, a human breast cancer line", "knock-down reagent": "single siRNA against human genes, 20 nM siRNA (0.8 pmol per well)", "timing": "120 h (drug added 48 h after transfection, read 72 h later)", "conditions": "camptothecin 20 nM (about EC30) for 72 h; vehicle 0.1% DMSO in parallel plates", "measurement": "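Cell viability by ATP luminescence (CellTiter-Glo) as % of non-targeting siRNA wells, and the log2 ratio of viability without drug over viability with camptothecin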", "direction": "log2 vehicle/camptothecin viability: higher = stronger sensitisation to camptothecin", "active means": "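Each gene scored by redundant siRNA activity (RSA) over its individual siRNA ratios; a gene is called active at p < 0.001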", "note": "Here is one part, drawn at random, of about 26,000 deposited reagents. Over the whole deposit, 167 (0.63%) got an active call. 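Calls are per gene from RSA p-values that are not deposited; an individual active-marked siRNA can sensitise only weakly.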 Entries without a mark were called inactive. Reagents against one gene are numbered here. Further read-outs or replicates are left out here."}
{"gene":"FGL2 (fibrinogen like 2)","reagent":1,"log2 vehicle/camptothecin viability":-0.298}
{"gene":"FGL2 (fibrinogen like 2)","reagent":2,"log2 vehicle/camptothecin viability":-0.154}
{"gene":"FGL2 (fibrinogen like 2)","reagent":3,"log2 vehicle/camptothecin viability":-0.265}
{"gene":"FGL2 (fibrinogen like 2)","reagent":4,"log2 vehicle/camptothecin viability":-0.568}
{"gene":"SLC7A3","reagent":1,"log2 vehicle/camptothecin viability":-0.262}
{"gene":"SLC7A3","reagent":2,"log2 vehicle/camptothecin viability":-0.345}
{"gene":"SLC7A3","reagent":3,"log2 vehicle/camptothecin viability":-0.227}
{"gene":"SLC7A3","reagent":4,"log2 vehicle/camptothecin viability":-0.503}
{"gene":"ALDH9A1 (aldehyde dehydrogenase 9 family member A1)","reagent":1,"log2 vehicle/camptothecin viability":-0.187}
{"gene":"ALDH9A1 (aldehyde dehydrogenase 9 family member A1)","reagent":2,"log2 vehicle/camptothecin viability":-0.0714}
{"gene":"ALDH9A1 (aldehyde dehydrogenase 9 family member A1)","reagent":3,"log2 vehicle/camptothecin viability":-0.529}
{"gene":"ALDH9A1 (aldehyde dehydrogenase 9 family member A1)","reagent":4,"log2 vehicle/camptothecin viability":-0.0963}
{"gene":"SPINK1 (serine peptidase inhibitor Kazal type 1)","reagent":1,"log2 vehicle/camptothecin viability":0.097}
{"gene":"SPINK1 (serine peptidase inhibitor Kazal type 1)","reagent":2,"log2 vehicle/camptothecin viability":0.124}
{"gene":"SPINK1 (serine peptidase inhibitor Kazal type 1)","reagent":3,"log2 vehicle/camptothecin viability":0.473}
{"gene":"SPINK1 (serine peptidase inhibitor Kazal type 1)","reagent":4,"log2 vehicle/camptothecin viability":-0.0643}
{"gene":"SOX9 (SRY-box transcription factor 9)","reagent":1,"log2 vehicle/camptothecin viability":0.206}
{"gene":"SOX9 (SRY-box transcription factor 9)","reagent":2,"log2 vehicle/camptothecin viability":-0.0499}
{"gene":"SOX9 (SRY-box transcription factor 9)","reagent":3,"log2 vehicle/camptothecin viability":-0.548}

Continued (6 carried over from the part before).
{"gene":"SPINK1 (serine peptidase inhibitor Kazal type 1)","reagent":2,"log2 vehicle/camptothecin viability":0.124}
{"gene":"SPINK1 (serine peptidase inhibitor Kazal type 1)","reagent":3,"log2 vehicle/camptothecin viability":0.473}
{"gene":"SPINK1 (serine peptidase inhibitor Kazal type 1)","reagent":4,"log2 vehicle/camptothecin viability":-0.0643}
{"gene":"SOX9 (SRY-box transcription factor 9)","reagent":1,"log2 vehicle/camptothecin viability":0.206}
{"gene":"SOX9 (SRY-box transcription factor 9)","reagent":2,"log2 vehicle/camptothecin viability":-0.0499}
{"gene":"SOX9 (SRY-box transcription factor 9)","reagent":3,"log2 vehicle/camptothecin viability":-0.548}
{"gene":"MICA (MHC class I polypeptide-related sequence A)","reagent":1,"log2 vehicle/camptothecin viability":-0.0458}
{"gene":"MICA (MHC class I polypeptide-related sequence A)","reagent":2,"log2 vehicle/camptothecin viability":0.0728}
{"gene":"MICA (MHC class I polypeptide-related sequence A)","reagent":3,"log2 vehicle/camptothecin viability":-0.237}
{"gene":"SOCS5 (suppressor of cytokine signaling 5)","reagent":1,"log2 vehicle/camptothecin viability":0.0296}
{"gene":"SOCS5 (suppressor of cytokine signaling 5)","reagent":2,"log2 vehicle/camptothecin viability":-0.0477}
{"gene":"SOCS5 (suppressor of cytokine signaling 5)","reagent":3,"log2 vehicle/camptothecin viability":0.308}
{"gene":"SOCS5 (suppressor of cytokine signaling 5)","reagent":4,"log2 vehicle/camptothecin viability":0.28}
{"gene":"TRAF1 (TNF receptor associated factor 1)","reagent":1,"log2 vehicle/camptothecin viability":-0.148}
{"gene":"TRAF1 (TNF receptor associated factor 1)","reagent":2,"log2 vehicle/camptothecin viability":0.152}
{"gene":"TRAF1 (TNF receptor associated factor 1)","reagent":3,"log2 vehicle/camptothecin viability":-0.36}
{"gene":"TRAF1 (TNF receptor associated factor 1)","reagent":4,"log2 vehicle/camptothecin viability":-0.211}
{"gene":"MICB (MHC class I polypeptide-related sequence B)","reagent":1,"log2 vehicle/camptothecin viability":-0.197}
{"gene":"MICB (MHC class I polypeptide-related sequence B)","reagent":2,"log2 vehicle/camptothecin viability":0.946}
{"gene":"MICB (MHC class I polypeptide-related sequence B)","reagent":3,"log2 vehicle/camptothecin viability":0.00196}
{"gene":"MICB (MHC class I polypeptide-related sequence B)","reagent":4,"log2 vehicle/camptothecin viability":-0.549}
{"gene":"ZNF598 (zinc finger protein 598, E3 ubiquitin ligase)","reagent":1,"log2 vehicle/camptothecin viability":-0.0462}
{"gene":"ZNF598 (zinc finger protein 598, E3 ubiquitin ligase)","reagent":2,"log2 vehicle/camptothecin viability":-0.252}
{"gene":"ZNF598 (zinc finger protein 598, E3 ubiquitin ligase)","reagent":3,"log2 vehicle/camptothecin viability":0.381}
{"gene":"ZNF598 (zinc finger protein 598, E3 ubiquitin ligase)","reagent":4,"log2 vehicle/camptothecin viability":-0.338}
{"gene":"PRPF31 (pre-mRNA processing factor 31)","reagent":1,"log2 vehicle/camptothecin viability":0.432}
{"gene":"PRPF31 (pre-mRNA processing factor 31)","reagent":2,"log2 vehicle/camptothecin viability":-0.534}
{"gene":"PRPF31 (pre-mRNA processing factor 31)","reagent":3,"log2 vehicle/camptothecin viability":-0.384}
{"gene":"NCKAP1 (NCK associated protein 1)","reagent":1,"log2 vehicle/camptothecin viability":0.0769}
{"gene":"NCKAP1 (NCK associated protein 1)","reagent":2,"log2 vehicle/camptothecin viability":-0.366}
{"gene":"NCKAP1 (NCK associated protein 1)","reagent":3,"log2 vehicle/camptothecin viability":0.0683}
{"gene":"NCKAP1 (NCK associated protein 1)","reagent":4,"log2 vehicle/camptothecin viability":-0.251}
